Data reported in PubChem BioAssay AID485318 (Broad Institute, 2010).
The campaign covered roughly 1,400 compounds. Fewer than 10 were called active.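 Rule for the calls: active = fluorescence-lowering compounds whose fitted half-maximal concentration is at or below ten times the highest valid dose tested; inconclusive = flat curve at 30 to 70% inhibition, or poor fit; inactive = the rest.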 Some of the results follow.

Amino acid sequences for entries named in this document (tags omitted). A change or cut given only in a name is not applied to a line headed by its entry.
UniProt O15379: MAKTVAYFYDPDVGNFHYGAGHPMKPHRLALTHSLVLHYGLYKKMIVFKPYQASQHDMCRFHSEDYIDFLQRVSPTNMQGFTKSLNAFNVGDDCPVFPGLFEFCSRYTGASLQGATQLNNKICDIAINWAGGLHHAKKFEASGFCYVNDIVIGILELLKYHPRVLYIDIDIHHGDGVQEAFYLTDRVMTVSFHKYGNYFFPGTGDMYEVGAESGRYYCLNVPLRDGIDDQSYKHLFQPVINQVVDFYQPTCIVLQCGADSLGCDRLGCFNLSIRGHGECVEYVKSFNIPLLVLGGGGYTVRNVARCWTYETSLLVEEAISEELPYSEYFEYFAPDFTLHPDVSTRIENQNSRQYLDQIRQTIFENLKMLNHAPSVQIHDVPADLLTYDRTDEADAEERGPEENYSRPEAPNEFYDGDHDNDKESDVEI

Biological target: Histone deacetylase 3 (Homo sapiens) (UniProt O15379)
Experiment: inhibition of human HDAC3 enzymatic activity – biochemical, fluorescence, cherry-picked samples, counter-screen for JMJD2C/GASC1 demethylase inhibitor project, dose response (AID 485318);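 note: enzyme preincubated with compound before substrate and trypsin were added; 0% = neutral control wells and -100% = SAHA positive control wells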
Conditions: recombinant HDAC3, fluorogenic peptide/trypsin coupled; at 12 µM (top of the series)

SMILES | activity change, negative = inhibition
Cn1c(=O)[nH]c(=O)c2[nH]c(NCCCN3CCOCC3)nc21 | inactive: 0.647%
Cc1cccc(Oc2nc(CN3CCOCC3)nc3sc4c(c23)CCCC4)c1 | inactive: 0.0683%
Cc1cccc2sc(NNC(=O)c3cc(=O)c4ccccc4o3)nc12 | inactive: 0.499%
COc1ccc(/C=N/Nc2cc(=O)n(C)c(=O)n2C)cc1OC | inactive: 0.0393%
COc1ccc(CN2CCCCC2C)c(C)c1C (centres undefined) | inactive: 0.0195%
CCCC(=O)Nc1nc2c(c(=O)[nH]1)CCCC2 | inactive: 1.02%
COc1cc2c(cc1OC)C1=C(C#N)COCN1CC2 | inactive: -0.477%
O=C(NC1(O)C(=O)c2ccccc2C1=O)c1c(Cl)cccc1Cl | inactive: -1.65%
COc1ccc(/C=N/NC(=O)c2cc(C)on2)c2ccccc12 | inactive: 0.0464%
C[C@H](CO)N1C[C@H](C)[C@@H](CN(C)C(=O)Nc2ccc3c(c2)OCO3)Oc2c(NS(=O)(=O)c3ccc(F)cc3)cccc2C1=O | inactive: 0.216%
CCN(CC)C(=O)N1CCc2ccccc2C1CN1C(=O)c2ccccc2C1=O (centres undefined) | inactive: -0.523%
CNC[C@@H]1Oc2ccc(NC(=O)Nc3cccc4ccccc34)cc2C(=O)N([C@@H](C)CO)C[C@@H]1C | inactive: 0.13%
O=C(NCC(=O)N1CCCCC1)c1sc2ccccc2c1Cl | inactive: 0.0195%
CCOC(=O)c1nc(C)n(-c2cc(Cl)ccc2Cl)n1 | inactive: 0.614%
CCCCCCc1cc2cc(-c3nnc(-c4ccccc4)o3)c(=O)oc2cc1O | inactive: -0.197%
CCN(CCNS(=O)(=O)c1ccc2c(c1)oc(=O)n2C)c1ccccc1 | inactive: -0.21%
COc1cccc(-n2nnc3c(=O)n(Cc4ccccc4F)cnc32)c1 | inactive: -0.245%
CN(C)S(=O)(=O)c1ccc(NC(=S)NC(=O)C2CCC2)cc1 | inactive: -0.3%
CN(C)S(=O)(=O)c1ccc(N2CCCC2)c(C(=O)Nc2nc3ccc(F)cc3s2)c1 | inactive: -1.03%
Cc1ccccc1-c1ccc(=O)n(CC(=O)Nc2ccc(N3CCOCC3)cc2)n1 | inactive: 0.299%
COC(=O)C1=C(C)N(CCc2cc(OC)c(OC)c(OC)c2)C(=O)N[C@H]1c1cccs1 | inactive: 0.535%
O=C1C=C(NCc2ccc3c(c2)OCO3)CC(c2ccccc2)C1 (centres undefined) | inactive: -0.313%

By substructure, the entries above containing a Cl atom.
SMILES | activity change, negative = inhibition
O=C(NC1(O)C(=O)c2ccccc2C1=O)c1c(Cl)cccc1Cl | inactive: -1.65%
O=C(NCC(=O)N1CCCCC1)c1sc2ccccc2c1Cl | inactive: 0.0195%
CCOC(=O)c1nc(C)n(-c2cc(Cl)ccc2Cl)n1 | inactive: 0.614%

Remaining list, next part.

SMILES | activity change, negative = inhibition
CCN(C[C@H]1N[C@@](C)(C(=O)OC)[C@H]2C(=O)N(C)C(=O)[C@@H]12)C(=O)Nc1ccc(C)cc1 | inactive: 0.118%
c1ccn2c(SCc3cn4ccsc4n3)nnc2c1 | inactive: 0.916%
C=CCNCCOc1cccc(Br)c1 | inactive: 0.109%
O=C(CNC(=O)c1ccc(S(=O)(=O)N2CCCC2)cc1)N/N=C/c1ccccc1 | inactive: 0.263%
Cc1noc(C)c1C(=O)Nc1ccc2ccccc2c1 | inactive: 0.575%
CC(C)CCSc1cc(NCCO)c([N+](=O)[O-])c2nonc12 | inactive: -0.441%
Cc1ccc(S(=O)(=O)N2CCOCC2)cc1C(=O)NNC(=O)c1ccoc1C | inactive: 0.0595%
Cc1sc2ncnc(OCC(=O)N3CCN(S(=O)(=O)c4ccc(Cl)cc4)CC3)c2c1C | inactive: -0.0129%
COc1cccc(/C=C/C(=O)OCC(=O)NCc2ccc(Cl)cc2)c1 | inactive: 0.682%
COc1ccc(NC(=O)CCN2CCCCCC2)cc1 | inactive: 0.267%
COc1ccc(NC(=O)Nc2ccc3c(c2)C(=O)N([C@H](C)CO)C[C@H](C)[C@@H](CN(C)S(=O)(=O)c2cccs2)O3)cc1 | inactive: -0.466%
Cc1cc(Cl)c(S(=O)(=O)Nc2ccc3c(c2)OCCO3)cc1OCC(N)=O | inactive: -0.0612%
O=C(Oc1cccc(NC(=O)c2ccco2)c1)c1cccc(S(=O)(=O)N2CCCC2)c1 | inactive: 0.0944%
C[C@H](CO)N1C[C@H](C)[C@@H](CN(C)C(=O)Nc2ccc3c(c2)OCO3)Oc2ccc(NC(=O)Cn3cnnn3)cc2C1=O | inactive: 0.493%
O=C(CSc1ncccn1)NCc1ccc(F)cc1 | inactive: -0.701%
Cc1noc(C)c1COc1ccc(C(=O)NCC2CCCO2)cc1 (centres undefined) | inactive: 0.748%
Cc1cccc(C(=O)NCC(c2ccco2)N2CCc3ccccc32)c1 (centres undefined) | inactive: 0.541%
Cc1nnc(SCc2nnc(-c3ccccc3)o2)n(N)c1=O | inactive: 1.1%
Cc1ccccc1N=C1N=C(N)c2ccccc21 | inactive: 1.05%
CN(C)/C=N/c1sccc1C(N)=O | inactive: -0.671%
CCC(C)[C@H](NC(=O)NCc1ccccc1Cl)C(=O)O (some centres undefined) | inactive: 0.225%
O=C(Nc1nnc(-c2cc(Cl)ccc2Cl)o1)c1ccco1 | inactive: 0.485%
